The values that follow come from patent publication US20240350653A1 (JOINT STOCK COMPANY GENERIUM, published 2024).

Protein sequences, listed by entry. Tags and fused reporters are not part of them. Lines headed by an entry give the natural chain unless they say otherwise; changes in a name come on top. Chains listed by the source or under a name are the forms on record and can include a tag or linker.
Human Insulin Receptor protein fragment (Abcam cat #ab200510) (P06213, form named): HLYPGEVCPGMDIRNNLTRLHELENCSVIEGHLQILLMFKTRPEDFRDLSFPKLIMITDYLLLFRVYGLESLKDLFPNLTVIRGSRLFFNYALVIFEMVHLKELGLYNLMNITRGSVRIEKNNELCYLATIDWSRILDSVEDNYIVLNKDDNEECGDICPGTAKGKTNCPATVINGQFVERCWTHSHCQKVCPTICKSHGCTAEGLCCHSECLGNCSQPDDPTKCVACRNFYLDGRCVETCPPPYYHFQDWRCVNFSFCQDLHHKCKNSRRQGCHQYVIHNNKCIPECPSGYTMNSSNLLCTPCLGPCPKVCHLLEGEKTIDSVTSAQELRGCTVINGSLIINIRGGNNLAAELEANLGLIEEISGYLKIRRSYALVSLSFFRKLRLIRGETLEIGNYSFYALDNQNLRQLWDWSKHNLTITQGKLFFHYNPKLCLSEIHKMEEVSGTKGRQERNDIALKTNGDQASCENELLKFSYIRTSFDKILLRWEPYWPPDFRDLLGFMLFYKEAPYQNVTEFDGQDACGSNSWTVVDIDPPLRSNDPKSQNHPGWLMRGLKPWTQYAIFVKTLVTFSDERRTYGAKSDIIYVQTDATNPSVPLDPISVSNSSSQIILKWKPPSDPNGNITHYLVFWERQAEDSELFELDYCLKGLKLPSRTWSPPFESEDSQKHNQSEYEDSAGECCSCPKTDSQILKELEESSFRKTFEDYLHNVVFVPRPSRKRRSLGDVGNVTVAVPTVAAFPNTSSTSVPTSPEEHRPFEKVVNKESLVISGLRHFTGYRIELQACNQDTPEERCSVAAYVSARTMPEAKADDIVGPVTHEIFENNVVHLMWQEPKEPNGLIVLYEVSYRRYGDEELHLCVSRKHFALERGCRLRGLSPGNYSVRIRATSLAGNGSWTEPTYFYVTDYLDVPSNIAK

These are yes or no findings as the source states them, for the method shown. Some binding calls cover weakened binding; strength is not graded here.

For the test, the target named is Human Insulin Receptor protein fragment (Abcam cat #ab200510) (human) (UniProt P06213). The experiment in a line: ELISA on human insulin receptor fragment. Background: In an ELISA, binding on a coated surface is turned into a signal by an enzyme label.

B1: HIR-FAB-IDS (SEQ ID NO: 9 and SEQ ID NO: 13) (Fab)
light: EIVLTQSPDFQSVTPKEKVTITCRASQDIGGNLYWYQQKPDQSPKLLIKATSSLDSGVPSRFSGSGSGTDFTLTINSLEAEDAAAYYCLQYSSSPWTFGPGTKVDIKRTVAAPSVFIFPPSDEQLKSGTASVVCLLNNFYPREAKVQWKVDNALQSGNSQESVTEQDSKDSTYSLSSTLTLSKADYEKHKVYACEVTHQGLSSPVTKSFNRGEC
heavy: QVQLVESGGGVVQPGRSLRLSCAASGFTFSNYDIHWVRQAPGKGLEWVAWIYPGDGSTKYNEKFKGRFTISRDNSKNTLYLQMNGLRAEDTAVYYCAREWAYWGQGTLVTVSSASTKGPSVFPLAPSSKSTSGGTAALGCLVKDYFPEPVTVSWNSGALTSGVHTFPAVLQSSGLYSLSSVVTVPSSSLGTQTYICNVNHKPSNTKVDKRVEPKSCDKTHLSSSETQANSTTDALNVLLIIVDDLRPSLGCYGDKLVRSPNIDQLASHSLLFQNAFAQQAVCAPSRVSFLTGRRPDTTRLYDFNSYWRVHAGNFSTIPQYFKENGYVTMSVGKVFHPGISSNHTDDSPYSWSFPPYHPSSEKYENTKTCRGPDGELHANLLCPVDVLDVPEGTLPDKQSTEQAIQLLEKMKTSASPFFLAVGYHKPHIPFRYPKEFQKLYPLENITLAPDPEVPDGLPPVAYNPWMDIRQREDVQALNISVPYGPIPVDFQRKIRQSYFASVSYLDTQVGRLLSALDDLQLANSTIIAFTSDHGWALGEHGEWAKYSNFDVATHVPLIFYVPGRTASLPEAGEKLFPYLDPFDSASQLMEPGRQSMDLVELVSLFPTLAGLAGLQVPPRCPVPSFHVELCREGKNLLKHFRFRDLEEDPYLPGNPRELIAYSQYPRPSDIPQWNSDKPSLKDIKIMGYSIRTIDYRYTVWVGFNPDEFLANFSDIHAGELYFVDSDPLQDHNMYNDSQGGDLFQLLMP
notes: Variant of the Fab-iduronate-2-sulfatase fusion
For B1, the binding entry was “binds”.

B2: HIR-FAB-IDS (SEQ ID NO: 11 and SEQ ID NO: 15) (Fab)
light: EIVLTQSPATLSLSPGERATLSCRASQDIGGNLYWYQQKPGQAPRLLIYATSSLDSGIPARFSGSGSGTDFTLTISSLEPEDFAVYYCLQYSSSPWTFGQGTRLEIKRTVAAPSVFIFPPSDEQLKSGTASVVCLLNNFYPREAKVQWKVDNALQSGNSQESVTEQDSKDSTYSLSSTLTLSKADYEKHKVYACEVTHQGLSSPVTKSFNRGEC
heavy: EVQLVESGGGLVQPGRSLRLSCAASGFTFNNYDIHWVRQAPGKGLEWVSWIYPGDGSTKYNEKFKGRFTISRDNAKKSLYLQMNSLRAEDTALYYCAKEWAYWGQGTTVTVSSASTKGPSVFPLAPGSSKSTSGTAALGCLVKDYFPEPVTVSWNSGALTSGVHTFPAVLQSSGLYSLSSVVTVPSSSLGTQTYICNVNHKPSNTKVDKKVEPKSCDKTHLSSSETQANSTTDALNVLLIIVDDLRPSLGCYGDKLVRSPNIDQLASHSLLFQNAFAQQAVCAPSRVSFLTGRRPDTTRLYDFNSYWRVHAGNFSTIPQYFKENGYVTMSVGKVFHPGISSNHTDDSPYSWSFPPYHPSSEKYENTKTCRGPDGELHANLLCPVDVLDVPEGTLPDKQSTEQAIQLLEKMKTSASPFFLAVGYHKPHIPFRYPKEFQKLYPLENITLAPDPEVPDGLPPVAYNPWMDIRQREDVQALNISVPYGPIPVDFQRKIRQSYFASVSYLDTQVGRLLSALDDLQLANSTIIAFTSDHGWALGEHGEWAKYSNFDVATHVPLIFYVPGRTASLPEAGEKLFPYLDPFDSASQLMEPGRQSMDLVELVSLFPTLAGLAGLQVPPRCPVPSFHVELCREGKNLLKHFRFRDLEEDPYLPGNPRELIAYSQYPRPSDIPQWNSDKPSLKDIKIMGYSIRTIDYRYTVWVGFNPDEFLANFSDIHAGELYFVDSDPLQDHNMYNDSQGGDLFQLLMP
notes: as for B1
As for B2, the binding result is “binds”.
